# Reference: the supplement of paper PMC8732350
# Where a name gives a salt, the structure may show the parent alone. ± gives the standard deviation of the averaged measurements. The list shows a part of the results. This data set is noisy: repeats of one test often differ as much as different tests do.
# Tested on: A549
# Assay: surface PD-L1 immunofluorescence intensity relative to IFN-gamma-only control (ratio); higher = more PD-L1 expression
# Conditions: 10 µM; exposure time 24 h; IFN-gamma 100 ng/mL
row,Compound,surface PD-L1 immunofluorescence intensity
1,COc1cc(C(=O)OCCCN2CCCN(CCCOC(=O)c3cc(OC)c(OC)c(OC)c3)CC2)cc(OC)c1OC [Dilazep dihydrochloride],0.902 ± 0.13
2,COC(=O)C1=C(C)NC(C)=C([N+](=O)[O-])C1c1ccccc1C(F)(F)F (configuration not stated),0.958
3,O/N=C/c1ccc(-c2ccc(O)c(F)c2)c(Cl)c1O,1.07
4,C[C@@H]1C[C@H]2[C@@H]3C[C@H](F)C4=CC(=O)C=C[C@]4(C)[C@@]3(F)[C@@H](O)C[C@]2(C)[C@@]1(O)C(=O)CO [Flumethasone],0.812
5,O=C(O)c1ccc(O)c(O)c1 [Protocatechuic acid],0.924
6,O=C(NC[C@H]1CN(c2ccc(N3CCOCC3=O)cc2)C(=O)O1)c1ccc(Cl)s1 [Rivaroxaban (Xarelto)],1.01
7,O=C(O)Cc1ccc(-c2ccccc2)cc1 [Felbinac],1.06
8,Cc1cc2c(cc1CC(=O)c1sccc1S(=O)(=O)Nc1onc(C)c1Cl)OCO2,0.985
9,O=C(O)c1cn(-c2ccc(F)cc2)c2cc(N3CCNCC3)c(F)cc2c1=O [Sarafloxacin],0.949
10,COc1cccc(/C=N/N=C/c2cccc(OC)c2)c1,1.08
11,CC[C@H](/C=C/[C@@H](C)[C@H]1CC[C@H]2[C@@H]3CC=C4C[C@@H](O)CC[C@]4(C)[C@H]3CC[C@]12C)C(C)C [Stigmasterol (Stigmasterin)],1.15
12,c1ccc(NCc2ccc(CNc3ccccn3)cc2)nc1,0.966
13,Cc1nnc(C(=O)NC(C)(C)c2nc(C(=O)NCc3ccc(F)cc3)c(O)c(=O)n2C)o1 [Raltegravir (MK-0518)],1.04
14,COc1c2occc2cc2ccc(=O)oc12 [Methoxsalen (Oxsoralen)],0.888
15,NCc1ccccc1CC(=O)N[C@@H]1C(=O)N2C(C(=O)O)=C(CSc3nnnn3CC(=O)O)CS[C@H]12 [Ceforanide],1.04
16,CN1CCN(C2=Nc3ccccc3Oc3ccc(Cl)cc32)CC1 [Loxapine succinate],0.895
17,C[N+]1(C)CCC(OC(=O)C(O)(c2ccccc2)C2CCCC2)C1 (configuration not stated) [Glycopyrrolate],1.01
18,O=C(Nc1cccc(Cl)c1)c1ccccn1,0.968
19,Clc1ccc(CCC(Cn2ccnc2)Sc2c(Cl)cccc2Cl)cc1 (configuration not stated) [Butoconazole nitrate],1.03
20,C[C@@]1(C(=O)Nc2ccc(F)nc2)CCCN1c1nc(Nc2cc(C3CC3)n[nH]2)c2cccn2n1,0.929
21,N[C@H](C(=O)O)c1ccc(O)c(C(=O)O)c1 [(S)-3-Carboxy-4-hydroxyphenylglycine],1.1
22,N#Cc1ccc(C(c2ccc(C#N)cc2)n2cncn2)cc1 [Letrozole],0.939

# 2 entries drawn at random from those above, as already listed:
row,Compound,surface PD-L1 immunofluorescence intensity
6,O=C(NC[C@H]1CN(c2ccc(N3CCOCC3=O)cc2)C(=O)O1)c1ccc(Cl)s1 [Rivaroxaban (Xarelto)],1.01
3,O/N=C/c1ccc(-c2ccc(O)c(F)c2)c(Cl)c1O,1.07
